Target: Adenylate Cyclase (Bordetella pertussis, UniProt P0DKX7)
Type: biochemical
Conditions: enzyme 4.6 nmoles; imidazole 2.7 mmoles, PGE2-Histidine adduct 52 μmoles, celecoxib 0.52 mmoles

## COc1ccc(-n2nc(C(F)(F)F)cc2-c2ccc(Cl)cc2)cc1 [SC560, reference compound]
  inhibition of adenylate cyclase enzyme activity (FIG. 12): absence of adenylate cyclase inhibition

Reference: patent US20020032228A1 (priority 2000, published 2002)
